In paper PMC10439913 one finds binding data, which are given here for one substance.

Amino acid sequences for entries named in this document (tags omitted). A change or cut given only in a name is not applied to a line headed by its entry. Residues count along the entry.
UniProt P11717: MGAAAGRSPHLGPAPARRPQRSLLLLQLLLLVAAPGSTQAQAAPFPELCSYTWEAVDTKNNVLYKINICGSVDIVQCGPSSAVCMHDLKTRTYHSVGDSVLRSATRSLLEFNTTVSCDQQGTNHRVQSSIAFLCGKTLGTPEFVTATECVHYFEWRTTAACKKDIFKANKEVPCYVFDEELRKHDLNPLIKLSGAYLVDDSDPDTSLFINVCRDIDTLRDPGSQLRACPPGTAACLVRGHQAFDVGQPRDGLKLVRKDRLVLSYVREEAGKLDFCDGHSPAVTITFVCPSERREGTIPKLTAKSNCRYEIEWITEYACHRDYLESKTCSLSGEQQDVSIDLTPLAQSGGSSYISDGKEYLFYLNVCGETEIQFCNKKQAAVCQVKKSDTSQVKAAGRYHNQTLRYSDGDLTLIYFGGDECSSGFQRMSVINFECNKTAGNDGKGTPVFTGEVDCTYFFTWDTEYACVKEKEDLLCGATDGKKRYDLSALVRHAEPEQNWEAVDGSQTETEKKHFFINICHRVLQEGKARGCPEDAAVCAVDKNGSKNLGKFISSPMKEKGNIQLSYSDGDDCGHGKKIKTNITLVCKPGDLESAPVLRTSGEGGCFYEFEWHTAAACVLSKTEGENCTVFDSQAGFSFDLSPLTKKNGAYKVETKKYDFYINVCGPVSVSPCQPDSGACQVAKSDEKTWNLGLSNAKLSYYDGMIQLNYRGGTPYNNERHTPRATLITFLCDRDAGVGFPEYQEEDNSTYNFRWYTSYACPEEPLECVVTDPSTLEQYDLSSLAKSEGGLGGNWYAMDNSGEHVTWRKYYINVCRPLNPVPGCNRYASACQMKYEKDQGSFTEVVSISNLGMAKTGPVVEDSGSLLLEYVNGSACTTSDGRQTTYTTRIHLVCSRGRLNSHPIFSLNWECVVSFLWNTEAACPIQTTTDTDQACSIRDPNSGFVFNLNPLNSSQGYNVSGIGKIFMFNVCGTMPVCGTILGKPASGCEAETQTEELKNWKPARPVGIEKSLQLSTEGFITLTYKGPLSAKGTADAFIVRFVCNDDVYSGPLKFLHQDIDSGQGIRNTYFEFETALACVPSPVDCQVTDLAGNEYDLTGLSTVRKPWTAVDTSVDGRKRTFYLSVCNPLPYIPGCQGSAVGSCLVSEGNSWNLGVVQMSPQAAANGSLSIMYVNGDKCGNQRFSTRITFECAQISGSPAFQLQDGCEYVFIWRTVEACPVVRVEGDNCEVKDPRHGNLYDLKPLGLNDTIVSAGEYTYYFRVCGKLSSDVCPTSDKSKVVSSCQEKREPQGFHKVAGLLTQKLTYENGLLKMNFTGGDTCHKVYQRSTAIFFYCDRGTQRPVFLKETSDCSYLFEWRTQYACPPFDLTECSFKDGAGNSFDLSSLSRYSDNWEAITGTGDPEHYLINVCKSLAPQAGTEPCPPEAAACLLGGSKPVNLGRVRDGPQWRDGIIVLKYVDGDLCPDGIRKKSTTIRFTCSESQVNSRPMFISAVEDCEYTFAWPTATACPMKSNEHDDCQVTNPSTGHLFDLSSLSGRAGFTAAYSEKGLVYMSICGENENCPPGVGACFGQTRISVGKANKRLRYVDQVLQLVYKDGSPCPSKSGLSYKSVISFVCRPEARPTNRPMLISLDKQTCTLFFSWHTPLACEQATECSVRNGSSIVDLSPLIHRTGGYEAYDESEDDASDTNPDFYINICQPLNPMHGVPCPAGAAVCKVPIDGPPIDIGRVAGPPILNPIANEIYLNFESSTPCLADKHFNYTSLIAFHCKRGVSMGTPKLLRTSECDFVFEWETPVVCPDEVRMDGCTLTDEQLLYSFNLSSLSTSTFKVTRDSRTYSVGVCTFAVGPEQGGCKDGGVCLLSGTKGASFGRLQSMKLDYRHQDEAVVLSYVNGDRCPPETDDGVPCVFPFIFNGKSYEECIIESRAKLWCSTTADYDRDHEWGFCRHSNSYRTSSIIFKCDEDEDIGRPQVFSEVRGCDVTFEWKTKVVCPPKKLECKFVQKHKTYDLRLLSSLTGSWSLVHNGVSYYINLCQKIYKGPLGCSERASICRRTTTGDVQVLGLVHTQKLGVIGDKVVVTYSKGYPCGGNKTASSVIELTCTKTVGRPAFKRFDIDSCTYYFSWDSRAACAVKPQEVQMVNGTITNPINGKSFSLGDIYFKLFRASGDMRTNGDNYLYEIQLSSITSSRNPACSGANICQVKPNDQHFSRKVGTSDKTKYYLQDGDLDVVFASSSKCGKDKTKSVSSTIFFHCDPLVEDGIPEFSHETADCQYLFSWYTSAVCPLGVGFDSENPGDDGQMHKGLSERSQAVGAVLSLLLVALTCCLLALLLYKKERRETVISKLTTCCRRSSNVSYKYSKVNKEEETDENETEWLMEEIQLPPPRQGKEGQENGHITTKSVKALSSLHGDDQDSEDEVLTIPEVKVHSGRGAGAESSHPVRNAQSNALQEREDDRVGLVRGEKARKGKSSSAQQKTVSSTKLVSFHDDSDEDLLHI
UniProt P05019, residues 49-118: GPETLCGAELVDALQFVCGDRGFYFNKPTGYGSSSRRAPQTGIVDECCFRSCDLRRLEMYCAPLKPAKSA

These are yes or no findings as the source states them, for the method shown.

The experiment addresses Domain-11 of human M6P/IGF2R (D11) (human) (UniProt P11717). The experiment can be described thus: radioligand binding; competition of cold ligand with [125I]-monoiodotyrosyl-Tyr2-IGF2 for immobilized D11 (as in ref. 33); affinity relative to IGF2; both purified.

Regarding “IGF1 (from UniProt P05019 49-118) (ligand)”, the binding result is listed as “no binding”.
